In paper PMC5737863, “Entirely enzymatic nanofabrication of DNA–protein conjugates”:

Biological target: T1, mVirD2 (Agrobacterium tumefaciens (from pSDM3149)) (UniProt P06668)
T1 sequence (looked up): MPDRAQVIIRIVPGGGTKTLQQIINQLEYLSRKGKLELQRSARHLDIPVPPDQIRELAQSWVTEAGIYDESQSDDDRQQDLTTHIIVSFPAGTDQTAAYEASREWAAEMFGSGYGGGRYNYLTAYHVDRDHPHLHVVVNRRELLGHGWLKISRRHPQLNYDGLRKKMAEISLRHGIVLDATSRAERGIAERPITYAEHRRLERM
Test: EMSA
Settings: no retardation when binding site is RNA, Conjugation/EMSA: TKM buffer (50 mM Tris-HCl pH 8, 150 mM KCl, 1 mM MgCl2, 10% glycerol), 37 C, 1 h, 10% native PAGE, HER2 beads: PBS, room temperature, 15 min, recombinant protein, residues 1-204, protein details: N-terminal 6xHis

Sequence	binding result (ds RNA does not help)	binding result
GGAUGUAUGAAGUCGAUCCGUCGGCUUCAUAUAUCCUGCCAGGAGCAUACGUGCUCUUGGUA [ds full RNA]	no binding	
GGGAACACUACUAAACUUCAUAUAUCCUGCCAGCCAAUCAAAUCU [ss full RNA]		no binding

Negatives hold for the conditions tested. At least one verdict rests on a figure or table, not on a statement of the authors. Tags and fusion partners may be left off the protein sequences shown.
